# Test results published in PubChem BioAssay AID540256 (National Center for Advancing Translational Sciences (NCATS), 2011).
# Several values for one entry are separate records, joined by “and”; a condition that tells them apart may be missing. Equal values may be shown once. In all, about 300,000 compounds went through this assay and about 3,700 (1.2%) were called active. This list was built around the results that the source calls inconclusive (neither active nor inactive); the mix of calls is not that of the screen. The call rests on the fitted dose curve; tested in HEK293 cells. A potency beside an inconclusive call is a rough fit, not a confirmed value.
# Assay: qHTS for Inhibitors of binding or entry into cells for Lassa Virus; further: nearly all actives have a fitted effect of over 50% in size
# Conditions: Lassa virus pseudotype entry inhibition, cell reporter; activity change, negative = inhibition: at 37.9 µM (top of the series) unless noted
# On the % scale 0 is the no-effect control and ±100 the full control effect; potency means the concentration at half of the fitted maximal effect.
SMILES,"activity change, negative = inhibition",Potency
CC1CCc2c(sc3nc(-c4cc5ccccc5oc4=O)nc(Cl)c23)C1 (stereo unspecified),inactive: 16.1% [at 46.1 µM],
Cc1ccc(C(=O)NC2CC(C)(C)NC(C)(C)C2)cc1S(=O)(=O)N1CCOCC1,,"inconclusive: 14.1 µM [inhibitor, single point]"
O=C1NCCSC1c1ccccc1 (stereo unspecified),inactive: 14.7%,
COc1cc(C2C(C(=O)c3cccs3)=C(O)C(=O)N2CCN2CCOCC2)cc(OC)c1OC (stereo unspecified),inactive: 16.6%,
COc1cc(CN2CCCC(CO)(Cc3ccccc3C)C2)cc2c1OCO2 (stereo unspecified),,"inconclusive: 12.6 µM [inhibitor, partial curve, poor fit]"
c1ccc2c(c1)Nc1cc3ccccc3cc1S2,inactive: 19.9%,
COc1cc2nc(N3CCCN(C)CC3)nc(NC3CCN(Cc4ccccc4)CC3)c2cc1OC,,active: 1.83 µM
O=C(N/N=C/c1cc(O)ccc1[N+](=O)[O-])c1ccc2c(c1)OCCO2,,active: 5.01 µM
CN(C)CCCN(C(=O)COc1ccc(Cl)cc1)c1nc2cc3c(cc2s1)OCO3,,"inconclusive: 35.5 µM [inhibitor, single point]"
COc1ccc(Nc2nc(-c3ccccc3O)nc3ccccc23)cc1,inactive: -20.6%,
Cc1ccc(C2(C(F)(F)F)NC(=O)N3CCN=C3S2)cc1 (stereo unspecified),,"inconclusive: 14.6 µM [inhibitor, partial curve, poor fit]"
COc1ccc(NC(=O)c2cc(OC)c(OC)c(OC)c2)cn1,,"inconclusive: 6.51 µM [activator, single point]"
Cc1ccc(NC(=O)NC(=O)COc2c(F)c(F)cc(F)c2F)c(C)c1,inactive: 7.67%,
CC1=C[C@@H](COCc2ccccc2)O[C@@]2(C1)C(=O)N(Cc1ccc(Br)cc1)c1ccccc12,,"inconclusive: 1.19 µM [activator, single point]"
COc1cccc(CNC(=O)CN2C(=O)NC(c3ccccc3)(c3ccccc3)C2=O)c1,,"inconclusive: 6.31 µM [inhibitor, full curve, poor fit]"
CS(=O)(=O)N(CC(=O)Nc1ccc(S(=O)(=O)N2CCCC2)cc1)c1ccccc1F,,"inconclusive: 20.6 µM [inhibitor, single point]"
CCN(CC)S(=O)(=O)c1ccc(NC(=O)C2CCCN(C(=O)c3ccc(Cl)cc3)C2)cc1 (stereo unspecified),,"inconclusive: 22.4 µM [inhibitor, single point]"
CC(C)(C)CC(C)(C)NC(=S)NC1CCN(Cc2ccccc2)CC1,,"inconclusive: 35.5 µM [inhibitor, single point]"
COc1ccc(-c2nc3ccccc3[nH]2)cc1,,"inconclusive: 11.6 µM [inhibitor, partial curve, poor fit]"
Cc1ccc(Nc2ccc(C(=O)O)cc2[N+](=O)[O-])cc1,,"inconclusive: 0.631 µM [inhibitor, partial curve, poor fit]"
COc1ccccc1/C=C(/C(=O)OCC(=O)N(C)Cc1ccccc1)c1ccccc1,,"inconclusive: 25.1 µM [inhibitor, single point]"
CCN(CC)CC(O)c1cccn1-c1ccc(CNC(=O)NC(C)C)cc1 (stereo unspecified),inactive: -7.44%,

# 14 entries from above, with tabs:
SMILES	activity change, negative = inhibition	Potency
CC1CCc2c(sc3nc(-c4cc5ccccc5oc4=O)nc(Cl)c23)C1 (stereo unspecified)	inactive: 16.1% [at 46.1 µM]	
O=C1NCCSC1c1ccccc1 (stereo unspecified)	inactive: 14.7%	
COc1cc(C2C(C(=O)c3cccs3)=C(O)C(=O)N2CCN2CCOCC2)cc(OC)c1OC (stereo unspecified)	inactive: 16.6%	
COc1cc(CN2CCCC(CO)(Cc3ccccc3C)C2)cc2c1OCO2 (stereo unspecified)		inconclusive: 12.6 µM [inhibitor, partial curve, poor fit]
c1ccc2c(c1)Nc1cc3ccccc3cc1S2	inactive: 19.9%	
O=C(N/N=C/c1cc(O)ccc1[N+](=O)[O-])c1ccc2c(c1)OCCO2		active: 5.01 µM
CN(C)CCCN(C(=O)COc1ccc(Cl)cc1)c1nc2cc3c(cc2s1)OCO3		inconclusive: 35.5 µM [inhibitor, single point]
Cc1ccc(C2(C(F)(F)F)NC(=O)N3CCN=C3S2)cc1 (stereo unspecified)		inconclusive: 14.6 µM [inhibitor, partial curve, poor fit]
Cc1ccc(NC(=O)NC(=O)COc2c(F)c(F)cc(F)c2F)c(C)c1	inactive: 7.67%	
CC1=C[C@@H](COCc2ccccc2)O[C@@]2(C1)C(=O)N(Cc1ccc(Br)cc1)c1ccccc12		inconclusive: 1.19 µM [activator, single point]
COc1cccc(CNC(=O)CN2C(=O)NC(c3ccccc3)(c3ccccc3)C2=O)c1		inconclusive: 6.31 µM [inhibitor, full curve, poor fit]
CS(=O)(=O)N(CC(=O)Nc1ccc(S(=O)(=O)N2CCCC2)cc1)c1ccccc1F		inconclusive: 20.6 µM [inhibitor, single point]
CC(C)(C)CC(C)(C)NC(=S)NC1CCN(Cc2ccccc2)CC1		inconclusive: 35.5 µM [inhibitor, single point]
CCN(CC)CC(O)c1cccn1-c1ccc(CNC(=O)NC(C)C)cc1 (stereo unspecified)	inactive: -7.44%	

# (further entries)

SMILES,"activity change, negative = inhibition",Potency
O=c1[nH]ncc(NCCCO)c1Cl,inactive: -7.24%,
O=C1[C@H]2[C@@H]3[C@@H](O)[C@H](O)CC(=NOCc4ccccc4)[C@@H]3CC[C@H]2C(=O)N1Cc1ccc2c(c1)OCO2,,"inconclusive: 2.7 nM [activator, full curve, poor fit] and inconclusive: 7.91 µM [activator, single point]"
COc1ccc(C(=O)Nc2cc3c(cc2Cl)OCCCO3)cc1,,"inconclusive: 4.47 µM [activator, single point]"
Cc1ccc(S(=O)(=O)Nc2ccc(C(=O)NC3CC3)cc2)cc1,,"inconclusive: 35.5 µM [inhibitor, single point]"
COc1c(C)cc(Br)cc1C(=O)Nc1cccc(NC(=O)c2ccco2)c1,,"inconclusive: 14.1 µM [inhibitor, partial curve, poor fit]"
O=C1COc2ccc(C(=O)/C=C/c3ccccc3)cc2N1,,"inconclusive: 0.794 µM [inhibitor, partial curve, poor fit]"
COc1ccc2nc(NC(=O)C3CCCO3)sc2c1 (stereo unspecified),,"inconclusive: 12.6 µM [inhibitor, single point]"
O=C(N/N=C/c1ccoc1)c1ccc([N+](=O)[O-])cc1,,"inconclusive: 10 µM [activator, single point]"
CCOc1cc(/C=C2/SC(=S)NC2=O)ccc1OC(=O)c1ccco1,inactive: 11.4%,
COc1ccc(OCC(=O)O/N=C(\N)c2ccc(OC)cc2)cc1,,"inconclusive: 22.4 µM [inhibitor, single point]"
CCOC(=O)c1c(NC(=S)NC)sc2c1CC(C)(C)SC2,inactive: 12.3% [at 46.1 µM],
CC(/C=N\NC(=O)CN1CCN(S(=O)(=O)c2ccc(C)cc2)CC1)=C\c1ccccc1,,"inconclusive: 35.5 µM [inhibitor, single point]"
O=C(NCCS(=O)(=O)N1CCN(c2ccccc2F)CC1)c1ccccc1C(F)(F)F,inactive: 5.77% [at 46.1 µM],
COc1cccc(CNC(=O)Cn2c(=O)cc(C(F)(F)F)c3c(C)nn(C)c32)c1OC,,"inconclusive: 12.6 µM [activator, single point]"
CCN(CC)S(=O)(=O)c1ccc(Nc2ccc(-c3ccc4c(c3)OCCO4)nn2)cc1,,"inconclusive: 0.103 µM [inhibitor, full curve]"
CCN(CC(=O)Nc1c(F)cccc1F)C(=O)CCc1c[nH]c2ccccc12,,"inconclusive: 17.8 µM [inhibitor, partial curve, poor fit]"
Cc1cc(C)cc(NC(=O)C2C3C=CC4(O3)C2C(=O)N(CCN2CCCCC2)C4C(=O)NC2CCCCC2)c1 (stereo unspecified),,"inconclusive: 0.251 µM [inhibitor, full curve, poor fit]"
Cc1ncoc1C(=O)Nc1cccc(Cl)c1C,,"inconclusive: 0.082 µM [activator, full curve, poor fit]"
COc1ccccc1Cc1nc(-c2ccc(C)cc2)no1,,"inconclusive: 29.1 µM [inhibitor, single point]"
O=c1c2ccccc2[se]n1-c1ccccc1,,active: 14.6 µM
Cc1cc(Br)ccc1NC(=O)CNC(=O)CN(C)C1CCS(=O)(=O)C1 (stereo unspecified),,"inconclusive: 35.5 µM [inhibitor, single point]"
CC(=O)OC[C@H]1O[C@@H](O/N=C/[C@@H](C)[C@H](OCc2ccccc2)C(C)C)[C@H](OC(C)=O)[C@@H](OC(C)=O)[C@@H]1OC(C)=O,,"inconclusive: 23.1 µM [inhibitor, single point]"

SMILES,"activity change, negative = inhibition",Potency
CSC1CCCCC1(O)CSc1nc2c(cc1C#N)CCCC2 (stereo unspecified),inactive: -19.4%,
COc1ccc(OCCCC(=O)OC(C)C(=O)Nc2cccc(C(C)=O)c2)cc1 (stereo unspecified),inactive: 1.43%,
O=C1Cc2c(-c3ccccc3)cc(-c3cccc(Cl)c3)nc2-c2ccccc2N1,inactive: -1.78%,
c1ccc(CCNCc2ccccc2)cc1,inactive: 12.6%,
Cc1sc(NC(=O)CSC2=NCCS2)nc1-c1ccccc1,,"inconclusive: 8.91 µM [inhibitor, partial curve]"
Cc1ccc(C)c(N2CCN(C(=O)CN3CCSc4ccccc43)CC2)c1,,"inconclusive: 35.5 µM [inhibitor, single point]"
CCCCOc1ccc(OCCNC(=O)C2CCCN2C(=O)Nc2ccccc2)cc1 (stereo unspecified),,"inconclusive: 35.5 µM [inhibitor, single point]"
COc1ccccc1-c1ccc(SCC(=O)NC2CCCCC2)nn1,inactive: 0.953%,
O=C(Cc1cccs1)N(c1ccc(Cl)cc1)C1C=CS(=O)(=O)C1 (stereo unspecified),,"inconclusive: 0.082 µM [inhibitor, partial curve, poor fit]"
CCN(CC)c1ccc(C(=O)Nc2cccc(F)c2)cc1,,"inconclusive: 12.6 µM [inhibitor, single point]"
Cc1ccc(NC(=O)Cc2ccc3c(c2)CCCC3)cc1C,,"inconclusive: 6.51 µM [inhibitor, partial curve]"
O=C(NC(=S)Nc1ccc(N2CCCCC2)cc1)c1ccc2c(c1)OCCO2,,"inconclusive: 29.1 µM [activator, single point]"
C#CCSc1nccc(-c2nn(-c3ccc(C)cc3)ccc2=O)n1,,"inconclusive: 5.8 µM [inhibitor, partial curve, poor fit]"
CCOC(=O)c1c(NC(=O)c2cc(=O)c3cc(Cl)ccc3o2)sc(C)c1C,inactive: 16.2% [at 46.1 µM],
COc1ccc(/C=N/NC(=O)c2cccnc2)c2ccccc12,,"inconclusive: 2.51 µM [inhibitor, full curve]"
COc1cc(C(=O)NC(C)c2ccc(S(N)(=O)=O)cc2)ccc1OCC(=O)N1CCOCC1 (stereo unspecified),,"inconclusive: 7.08 µM [activator, partial curve, poor fit]"
CC(C)OCCCNC(=O)CN1CCN(Cc2ccc(Cl)cc2)C1=O,,"inconclusive: 2.82 µM [inhibitor, single point]"
COc1ccc(-c2cc(C(F)(F)F)nc(S(C)(=O)=O)n2)cc1OC,,"inconclusive: 25.9 µM [inhibitor, partial curve, poor fit]"
COc1ccc2c(c1)CCCC(Br)C2=O (stereo unspecified),,"inconclusive: 10 µM [inhibitor, partial curve, poor fit]"
O=C(c1ccco1)N1CCN(S(=O)(=O)c2ccc(Br)s2)CC1,inactive: -0.33%,
COc1ccc(N2C(=O)C(CC(=O)Nc3ccc(Cl)cc3)N(Cc3ccc4c(c3)OCO4)C2=O)cc1 (stereo unspecified),,"inconclusive: 15.8 µM [inhibitor, single point]"
Cc1cccc2sc(N(Cc3cccnc3)C(=O)CCS(=O)(=O)c3ccccc3)nc12,,"inconclusive: 11.2 µM [inhibitor, partial curve, poor fit]"
